In paper PMC5377257:
No constants are given. Whether binding was seen depends on the method and setting. In cells and extracts the contact can be indirect. Some results given as binding are weak or reduced against the parent protein; the word gives no strength.

By UniProt entry, the sequences of proteins in these tests, tags left out.
UniProt Q9UEE9: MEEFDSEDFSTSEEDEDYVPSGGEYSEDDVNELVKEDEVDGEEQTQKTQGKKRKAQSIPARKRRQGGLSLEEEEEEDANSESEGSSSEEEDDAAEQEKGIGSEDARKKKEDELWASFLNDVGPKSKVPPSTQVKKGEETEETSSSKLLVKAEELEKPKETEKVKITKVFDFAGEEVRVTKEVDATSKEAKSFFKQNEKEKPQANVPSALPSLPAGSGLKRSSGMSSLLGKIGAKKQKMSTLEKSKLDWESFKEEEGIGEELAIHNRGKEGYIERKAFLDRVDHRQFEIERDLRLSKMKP
UniProt P45973: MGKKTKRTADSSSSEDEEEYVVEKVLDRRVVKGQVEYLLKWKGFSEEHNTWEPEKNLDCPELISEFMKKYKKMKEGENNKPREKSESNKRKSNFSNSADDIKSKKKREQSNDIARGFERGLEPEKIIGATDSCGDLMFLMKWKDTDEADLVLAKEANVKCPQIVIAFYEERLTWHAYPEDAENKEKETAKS

Target: V5-CFDP1 (Cranio Facial Development Protein 1 tagged with V5) (human) (UniProt Q9UEE9)
Experiment: co-IP; cleared lysates of transfected HeLa cells (IP buffer: 50 mM Tris-HCl pH 7.5, 150 mM NaCl, 1% NP-40, 5 mM EGTA, 5 mM EDTA, 20 mM NaF) immunoprecipitated O/N at 4 °C with mouse anti-V5 antibody and protein A/G agarose; Ms IgG as negative control; Western blot

binding: binds weakly
Substance: HP1α (from UniProt P45973 1-191)
